# Experimental data from patent publication EP2626066A1, “Combination therapy comprising selective VEGFR-2 inhibitors and MEK inhibitors” (Max-Planck-Gesellschaft zur Förderung der Wissenschaften …, priority 2012, dated 2013).
# For at least one compound, name, drawing or mass did not settle the structure.
# Assays:
# H1975 cells = test: VEGF secretion ELISA assay, H1975 cells; assay type: cell-based, human; conditions: stimulation with VEGF, Zactima 1µM, Rapamycin 250nM
# Description: Cells were either treated with the indicated compounds or DMSO alone. After 4 hours cells were stimulated with 40 ng/ml of VEGF165, or incubated in medium containing DMSO only. Cells were then washed twice with PBS and supplemented with serum-free medium and allowed to secrete VEGF for 48 hours. Secretion of VEGF into cell culture supernatants was measured by Human VEGF Quantikine Kit (R&D Systems) according to manufacturer's instructions.
# H441 cells = test: VEGF secretion ELISA assay, H441 cells; assay type: cell-based, human; conditions: stimulation with VEGF, Zactima 1µM, Rapamycin 250nM
structure (smiles),measurement,setting,value
CO[C@H]1C[C@@H]2CC[C@@H](C)[C@@](O)(O2)C(=O)C(=O)N2CCCC[C@H]2C(=O)O[C@H]([C@H](C)C[C@@H]2CC[C@@H](O)[C@H](OC)C2)CC(=O)[C@H](C)/C=C(\C)[C@@H](O)[C@@H](OC)C(=O)[C@H](C)C[C@H](C)/C=C/C=C/C=C/1C [rapamycin],VEGF-induced VEGF secretion,H1975 cells,similarly blunted
same,VEGF-induced VEGF secretion,H441 cells,similarly blunted
